Results are given in words; binding and its absence hold for the method and conditions named. Binding seen in cells or lysates may run through a third protein. Some results given as binding are weak or reduced against the parent protein; the word gives no strength.
Target: Deubiquitinase UCHL1, endogenous in OCI-LY7 cells (human (endogenous in OCI-LY7)) (UniProt P09936)
Assay: co-IP; OCI-LY7 DLBCL cells lysed; endogenous proteins immunoprecipitated with antibodies to IgG, AIP, UCHL1, BCL6 or FBXO11 and immunoblotted

Protein sequences, listed by entry. Tags and fused reporters are not part of them.
UniProt P09936: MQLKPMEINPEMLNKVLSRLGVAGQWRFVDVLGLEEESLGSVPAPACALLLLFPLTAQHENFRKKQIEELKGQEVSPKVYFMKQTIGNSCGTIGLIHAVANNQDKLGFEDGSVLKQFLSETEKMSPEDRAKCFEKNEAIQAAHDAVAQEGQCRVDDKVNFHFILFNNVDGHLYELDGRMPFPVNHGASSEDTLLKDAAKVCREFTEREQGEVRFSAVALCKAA

binding: binds
B1: Aryl hydrocarbon receptor interacting protein (AIP), endogenous in OCI-LY7 cells (protein, UniProt O00170 1-330)
chain: MADIIARLREDGIQKRVIQEGRGELPDFQDGTKATFHYRTLHSDDEGTVLDDSRARGKPMELIIGKKFKLPVWETIVCTMREGEIAQFLCDIKHVVLYPLVAKSLRNIAVGKDPLEGQRHCCGVAQMREHSSLGHADLDALQQNPQPLIFHMEMLKVESPGTYQQDPWAMTDEEKAKAVPLIHQEGNRLYREGHVKEAAAKYYDAIACLKNLQMKEQPGSPEWIQLDQQITPLLLNYCQCKLVVEEYYEVLDHCSSILNKYDDNVKAYFKRGKAHAAVWNAQEAQADFAKVLELDPALAPVVSRELRALEARIRQKDEEDKARFRGIFSH

Reference: article PMC6506688
